From paper PMC11418137
These are yes or no findings as the source states them, for the method shown. Binding seen in cells or lysates may run through a third protein.

Protein sequences, listed by entry. Tags and fused reporters are not part of them. Lines headed by an entry give the natural chain unless they say otherwise; changes in a name come on top. Residues count along the entry.
UniProt P31358: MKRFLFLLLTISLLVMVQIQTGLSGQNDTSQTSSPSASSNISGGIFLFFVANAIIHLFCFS
UniProt P06127, residues 25-495: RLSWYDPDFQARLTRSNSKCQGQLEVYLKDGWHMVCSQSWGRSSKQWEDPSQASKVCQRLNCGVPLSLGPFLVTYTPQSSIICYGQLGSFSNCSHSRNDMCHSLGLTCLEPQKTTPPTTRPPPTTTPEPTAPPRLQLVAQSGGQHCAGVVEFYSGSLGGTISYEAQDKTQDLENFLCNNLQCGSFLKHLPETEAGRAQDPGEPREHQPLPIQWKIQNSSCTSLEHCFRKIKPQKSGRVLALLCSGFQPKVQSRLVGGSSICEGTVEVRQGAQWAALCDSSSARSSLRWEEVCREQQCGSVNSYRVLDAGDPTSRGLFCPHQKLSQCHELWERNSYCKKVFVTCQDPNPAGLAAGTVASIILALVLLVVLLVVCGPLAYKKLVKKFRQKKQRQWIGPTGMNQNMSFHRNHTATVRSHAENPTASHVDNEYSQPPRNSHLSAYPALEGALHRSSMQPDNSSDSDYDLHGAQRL

Target: T1, membrane-bound CD52 of CD4+ T cells (human (endogenous in CD4+ T cells of patients)) (UniProt P31358)
T1 sequence: GQNDTSQTSSPS
Experiment: FRET or BRET; AD CD4+ T cells stained with FITC-conjugated CD3ε, CD4, TCRβ or CD5 antibodies and DABCYL-conjugated anti-CD52 antibody or IgG1, in HBSS with or without 1 mM EDTA, fixed; read by flow cytometry (n = 3); Förster radius 6.2 nm

binding: no binding
Substance: CD5 of CD4+ T cells (from UniProt P06127 25-495)
